# Measured values taken from PubChem BioAssay AID1347076 (National Center for Advancing Translational Sciences (NCATS), 2019).
# Screen size: about 400,000 compounds; about 13,000 (3.2%) were called active. Inconclusive means that the source gave no clear call. Such entries were picked first, then a sample of the others. Calls follow the shape of the dose curve; as a rule, active = well fitted cell-killing curve with a large enough effect; inconclusive = small, poorly fitted or top-dose-only effect, or effect the other way; inactive = flat fitted curve, though single readings scatter. A potency beside an inconclusive call is a rough fit, not a confirmed value.
# Experiment: qHTS assay for MDR1-selective chemotherapeutics: Primary screen using the drug-selected MDR subline cells KB-V1; also: nearly all actives have a fitted effect of over 60% in size
# Settings: KB-V1 MDR cells viability, CellTiter-Glo, 72 h; activity change, negative = cytotoxicity: at 46.1 µM (top of the series)
# How it was run: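 Luminescent ATP read-out (CellTiter-Glo, 10 min) measures survival of drug-selected KB-V1 MDR cells after 72 h, 37 degrees C compound exposure. Medium: phenol-red-free DMEM, 10% FBS. Values from fitted concentration-response curves.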
# % is scaled to controls: 0 for no effect and ±100 for the full control effect; potency is read from the fitted curve at half-maximal effect.
Compound,Potency,"activity change, negative = cytotoxicity"
Cc1ccc(NC(=O)c2cnc(N3CCN(c4ccccn4)CC3)c3ccccc23)c(Br)c1,"inconclusive: 9.2 µM [cytotoxic, partial curve, poor fit]",
O=C(C1CCCCC1)N1CCN(c2nc(-c3ccc(F)cc3)cs2)CC1,"inconclusive: 18.4 µM [cytotoxic, single point]",
Cc1ccsc1C(=O)N1CCCC(CCC(=O)NCc2ccccc2F)C1 (configuration not stated),"inconclusive: 7.31 µM [cytotoxic, partial curve, poor fit]",
CCOc1cccc(N(C(=O)Cc2cccs2)C(C(=O)NC2CCCCC2)c2cccn2C)c1 (configuration not stated),"inconclusive: 4.61 µM [cytotoxic, partial curve, poor fit]",
O=C(CSc1nnc(-c2cccnc2)o1)NNC(=O)c1ccc(Br)cc1,"inconclusive: 29.1 µM [rising, single point]",
CCc1ccc(Nc2cc(=O)n(C3CCCCC3)c(=O)[nH]2)cc1,"inconclusive: 29.1 µM [cytotoxic, single point]",
COc1cccc(C(c2nnnn2C2CCCCC2)N2CCN(C/C=C/c3ccccc3)CC2)c1OC (configuration not stated),"inconclusive: 29.1 µM [cytotoxic, single point]",
COc1ccc(CCC(=O)NC2CCCc3ccccc32)cc1OC (configuration not stated),"inconclusive: 2.06 µM [cytotoxic, full curve, poor fit]",
CSCCC(NS(=O)(=O)c1ccccc1F)C(=O)NNC(=O)c1csc(N2CCOCC2)n1 (configuration not stated),"inconclusive: 29.1 µM [rising, single point]",
CCC(C(=O)NCc1ccco1)N(C(=O)CNS(=O)(=O)c1ccccc1)C1CCCCC1 (configuration not stated),"inconclusive: 16.4 µM [cytotoxic, partial curve]",
Cc1ccc(-c2csc(=Nc3cccnc3)n2CCCn2ccnc2)cc1C,active: 7.31 µM,
Cc1ccc(C)c(CN2CCC(CNC(=O)Nc3ccc(F)c(Cl)c3)CC2)c1,,inactive: -26.6%
CC(=O)Nc1c(Br)cc2c(c1Br)Cc1cc(Br)ccc1-2,"inconclusive: 25.9 µM [cytotoxic, single point]",
CC1CCCCC1NC(=O)CCCn1c(=S)[nH]c2ccccc2c1=O (configuration not stated),,inactive: -37.8%
Cc1ccccc1C1CCCN(C(=O)c2cc(COc3c(F)cccc3F)on2)C1 (configuration not stated),,inactive: -4.32%
Cc1c(NC(=O)c2cc3ccccc3oc2=O)c(=O)n(-c2ccccc2)n1C,,inactive: -5.33%
COc1ccc(-c2onc(C)c2-c2cnn(-c3ccccc3)c2)c(O)c1C,,inactive: -22.8%
O=C(COc1ccc(Cl)cc1)Nc1ccc2oc(-c3ccncc3)nc2c1,"inconclusive: 29.1 µM [rising, single point]",
Oc1c(CN2CCOCC2)cc(CN2CCOCC2)c(O)c1CN1CCOCC1,,inactive: 4.7%
CCCn1c(=O)n(C)c(=O)c2c(SC(C)C(=O)NCC3CCCO3)nc(CC(C)C)nc21 (configuration not stated),"inconclusive: 5.17 µM [cytotoxic, partial curve]",
CCc1nc2ccc(C(=O)NC3CCN(Cc4ccccc4)CC3)cn2c1N(CC)CCOC,"inconclusive: 9.2 µM [cytotoxic, partial curve]",
Cc1ccc(NC(=O)c2ccc(NC(=O)c3ccccc3)cc2)cc1C,active: 18.4 µM,
CC1Cc2ccccc2N1C(=O)COc1nc2ccccc2nc1N1CCOCC1 (configuration not stated),"inconclusive: 16.4 µM [cytotoxic, partial curve, poor fit]",

# Some values from above.
# Entry for CC1CCCCC1NC(=O)CCCn1c(=S)[nH]c2ccccc2c1=O (configuration not stated) under activity change, negative = cytotoxicity: inactive: -37.8%
# Entry for CCc1nc2ccc(C(=O)NC3CCN(Cc4ccccc4)CC3)cn2c1N(CC)CCOC under Potency: inconclusive: 9.2 µM [cytotoxic, partial curve]
# Entry for Cc1ccc(NC(=O)c2cnc(N3CCN(c4ccccn4)CC3)c3ccccc23)c(Br)c1 under Potency: inconclusive: 9.2 µM [cytotoxic, partial curve, poor fit]
# Entry for O=C(COc1ccc(Cl)cc1)Nc1ccc2oc(-c3ccncc3)nc2c1 under Potency: inconclusive: 29.1 µM [rising, single point]
# Entry for COc1ccc(CCC(=O)NC2CCCc3ccccc32)cc1OC (configuration not stated) under Potency: inconclusive: 2.06 µM [cytotoxic, full curve, poor fit]

# The list continues:

Compound,Potency,"activity change, negative = cytotoxicity"
COc1ccc(C2C3=C(CCCC3=O)Nc3nc(SCc4ccccc4)nn32)cc1OC (configuration not stated),"inconclusive: 18.4 µM [cytotoxic, single point]",
Cn1c(CN2CCCC2)nc2cc(NC(=O)C3CCCCC3)ccc21,,inactive: -27.6%
COc1ccc(C)cc1N/C(N)=N/c1nc(C)cc(C)n1,"inconclusive: 32.6 µM [cytotoxic, single point]",
CC(C)N(Cc1nc(-c2ccc(Cl)cc2)no1)C(=O)/C=C/c1ccccc1,active: 16.4 µM,
Cc1nc2nc(-c3ccccc3)nn2c(C)c1Cl,"inconclusive: 18.4 µM [cytotoxic, single point]",
COc1ccc2c(c1OC)C(=O)OC2Nc1ncccc1C (configuration not stated),"inconclusive: 11.6 µM [rising, partial curve]",
Oc1c(CN2CCc3ccccc3C2)cc(Cl)c2cccnc12,"inconclusive: 18.4 µM [cytotoxic, single point]",
Cc1ccc(P(=O)(CSC(=N)N)c2ccc(C)cc2)cc1,"inconclusive: 29.1 µM [cytotoxic, single point]",
Clc1ccc(-n2nnc(-c3nccs3)n2)cc1Cl,,inconclusive: 83.4%
O=C(COc1ccc([N+](=O)[O-])cc1)Nc1ccc2c(c1)CCC2,"inconclusive: 20.6 µM [cytotoxic, single point]",
CCOC(=O)c1noc2nc(C)n(Cc3cccc(C#N)c3)c(=O)c12,"inconclusive: 14.6 µM [rising, partial curve, poor fit]",
NS(=O)(=O)c1cccc(NC(=O)c2ccc(S(=O)(=O)N3CCCCCC3)cc2)c1,"inconclusive: 29.1 µM [rising, single point]",
Cn1c(=O)c2c(nc(N/N=C/c3ccc(OC(=O)c4ccco4)cc3)n2Cc2ccccc2)n(C)c1=O,"inconclusive: 23.1 µM [cytotoxic, single point]",
COc1cccc(/C=N/NC(=O)c2nnn(-c3nonc3N)c2C(C)C)c1OCc1ccc(F)cc1,,inactive: -15.8%
CC(=C/c1ccccc1)/C=N/Nc1nc(N2CCOCC2)nc(N2CCOCC2)n1,"inconclusive: 1.84 µM [cytotoxic, full curve, poor fit]",
CCN(C(=O)CSc1nnc2nc(C)cc(C)n12)c1ccccc1,"inconclusive: 14.6 µM [cytotoxic, single point]",
CC(C)(C)NC(=O)NC(=O)COC(=O)c1cccc(NS(=O)(=O)c2ccc(F)c(F)c2)c1,,inactive: -27.6%
CCS(=O)(=O)N1CCN=C1SCc1ccc(F)cc1,,inconclusive: 0%
O=C(O)CC1(CC(=O)NCc2ccc(F)cc2)CCCCC1,,inactive: -0.217%
COc1cc(/C=N/NC(=O)c2ccncc2)cc(OC)c1OC,,inactive: -0.36%
O=C(Nc1ccc(S(=O)(=O)NCc2ccccc2)cc1)c1ccc(Br)o1,,inactive: 0%
COc1cc(OC)cc(C(=O)c2c(C)c(C#N)c3ccccn23)c1,"inconclusive: 5.17 µM [cytotoxic, full curve, poor fit]",
CCCNC(=O)C1(C)CCN(C(=O)c2cc(F)ccc2C)C1 (configuration not stated),,inactive: 4.07%

Compound,Potency,"activity change, negative = cytotoxicity"
CCOc1ccc(C(C)=O)cc1CSc1nnnn1-c1ccc(O)cc1,"inconclusive: 14.6 µM [cytotoxic, partial curve, poor fit]",
O=C(NCc1ccc(F)cc1)c1ccc2c(c1)nnn2C1CCCC1,,inactive: 3.03%
O=c1c2c(ncn2C2CCCC2)n(Cc2ccccc2)c(=O)n1CCOc1ccc(Br)cc1,"inconclusive: 13 µM [cytotoxic, partial curve, poor fit]",
O=C(OCC(=O)N1CCN(Cc2ccccc2)CC1)c1cc(Cl)ccc1[N+](=O)[O-],"inconclusive: 18.4 µM [cytotoxic, single point]",
O=c1cc(Cn2ccnc2)c2cc(O)ccc2o1,"inconclusive: 20.6 µM [rising, single point]",
Cc1c(NC(=O)c2cc(-c3ccc(Cl)cc3)on2)c(=O)n(-c2ccccc2)n1C,"inconclusive: 4.61 µM [cytotoxic, partial curve]",
O=C1Nc2ccccc2C1=Nc1ccccc1-c1ccccc1,"inconclusive: 20.6 µM [cytotoxic, single point]",
C1CCCCCC2(CCCCC1)OCC(CN1CCOCC1)O2 (configuration not stated),"inconclusive: 29.1 µM [cytotoxic, single point]",
O=C(OCc1cccc(Cl)c1)c1cc([N+](=O)[O-])ccc1N1CCOCC1,"inconclusive: 29.1 µM [cytotoxic, single point]",
CC(O)(c1ccccc1)c1nc(-c2ccc3c(c2)OCO3)cs1 (configuration not stated),,inactive: -25.3%
C#CCOCCOCCOCCNc1nc(N2CCN(C(=O)Cn3cc(CCCN=C(N)N)nn3)CC2)nc(N2CCN(C(=O)[C@H](CCCCN)n3cc(CCC(=O)O)nn3)CC2)n1,"inconclusive: 29.1 µM [cytotoxic, single point]",
COc1ccc(Cl)cc1-n1c(=S)sc2c(=O)n(-c3ccc(F)cc3)c(SCC(=O)O)nc21,"inconclusive: 1.3 µM [rising, full curve]",
Cc1ccc(-c2csc(NC(=O)c3c(C)noc3C)n2)cc1C,"inconclusive: 20.6 µM [cytotoxic, single point]",
COc1cccc(-c2nnc(SCC(=O)NC3CCCCC3)o2)c1,,inactive: -29.9%
CCCc1cnc(NCCNCC(O)COc2ccc(Cl)c(Cl)c2)nc1 (configuration not stated),"inconclusive: 18.4 µM [cytotoxic, single point]",
COc1ccc(S(=O)(=O)Nc2ccc(-c3cn4ccsc4n3)cc2)cc1C,,inconclusive: -49.7% [cytotoxic]
CCc1c(C(=O)NCCc2cccc(C)c2)[nH]c(C)c1C(C)=O,active: 11.6 µM,
CCOC(=O)c1[nH]c2ccc(OC)cc2c1NC(=S)N1CCN(c2ccccc2OC)CC1,"inconclusive: 18.4 µM [cytotoxic, partial curve, poor fit]",
CC(=O)c1oc2ccccc2c1NC(=O)CN1CCCCC1,"inconclusive: 16.4 µM [cytotoxic, single point]",
NC(=O)NCC(=O)N1CCC(C(O)(c2ccccc2)c2ccccc2)CC1,"inconclusive: 23.1 µM [rising, partial curve, poor fit]",
COC(=O)C1C(=O)OC(C)(C)C1C(C)C(=O)c1ccccc1 (configuration not stated),"inconclusive: 13 µM [cytotoxic, partial curve, poor fit]",
